In patent US20240368605A1, “USE OF SPLICE SWITCHING OLIGONUCLEOTIDES FOR EXON SKIPPING-MEDIATED KNOCKDOWN OF PIM2” (INSTITUT NATIONAL DE LA SANTÉ ET DE LA RECHERCHE MÉDICALE, priority 2021, published 2024) one finds binding data, which are given here for 1 substance.

By UniProt entry, the sequences of proteins in these tests, tags left out. Residues count along the entry.
UniProt P38936, residues 2-164: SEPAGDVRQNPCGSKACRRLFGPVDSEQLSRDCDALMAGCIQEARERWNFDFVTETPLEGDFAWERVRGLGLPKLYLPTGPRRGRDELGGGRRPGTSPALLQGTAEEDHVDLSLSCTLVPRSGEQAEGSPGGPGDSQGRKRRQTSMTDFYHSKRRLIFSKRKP

Test [1] concerns the target T1, Caspase 3 (human) (UniProt P42574).
T1 sequence (looked up): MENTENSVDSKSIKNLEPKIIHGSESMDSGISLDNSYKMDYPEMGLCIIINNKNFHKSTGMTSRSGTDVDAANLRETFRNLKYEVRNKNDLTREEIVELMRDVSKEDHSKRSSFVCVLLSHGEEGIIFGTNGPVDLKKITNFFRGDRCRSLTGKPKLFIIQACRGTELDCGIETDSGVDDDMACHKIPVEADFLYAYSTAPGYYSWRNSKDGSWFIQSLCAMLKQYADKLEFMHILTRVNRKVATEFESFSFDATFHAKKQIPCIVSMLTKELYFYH
In words: FRET in early plasma cells (ePCs) (data not shown).

The target of test [2] is T1, Caspase 3 (human). In words: immunoprecipitation from XG21 cells and PBs (data not shown).

Results are given in words; binding and its absence hold for the method and conditions named. Some binding calls cover weakened binding; strength is not graded here.

Turning to “p21^Cip1/WAF1 (from UniProt P38936 2-164)”, the binding entry with Caspase 3 (human) [1] and in the test with Caspase 3 (human) [2] was “binds” in each case.
